Article doi:10.1101/2021.01.13.426575
These are yes or no findings as the source states them, for the method shown. In cells and extracts the contact can be indirect. Some results given as binding are weak or reduced against the parent protein; the word gives no strength. Tags and fused reporters may be left off the sequences shown.

Amino acid sequences for entries named in this document (tags omitted).
UniProt Q86TI2: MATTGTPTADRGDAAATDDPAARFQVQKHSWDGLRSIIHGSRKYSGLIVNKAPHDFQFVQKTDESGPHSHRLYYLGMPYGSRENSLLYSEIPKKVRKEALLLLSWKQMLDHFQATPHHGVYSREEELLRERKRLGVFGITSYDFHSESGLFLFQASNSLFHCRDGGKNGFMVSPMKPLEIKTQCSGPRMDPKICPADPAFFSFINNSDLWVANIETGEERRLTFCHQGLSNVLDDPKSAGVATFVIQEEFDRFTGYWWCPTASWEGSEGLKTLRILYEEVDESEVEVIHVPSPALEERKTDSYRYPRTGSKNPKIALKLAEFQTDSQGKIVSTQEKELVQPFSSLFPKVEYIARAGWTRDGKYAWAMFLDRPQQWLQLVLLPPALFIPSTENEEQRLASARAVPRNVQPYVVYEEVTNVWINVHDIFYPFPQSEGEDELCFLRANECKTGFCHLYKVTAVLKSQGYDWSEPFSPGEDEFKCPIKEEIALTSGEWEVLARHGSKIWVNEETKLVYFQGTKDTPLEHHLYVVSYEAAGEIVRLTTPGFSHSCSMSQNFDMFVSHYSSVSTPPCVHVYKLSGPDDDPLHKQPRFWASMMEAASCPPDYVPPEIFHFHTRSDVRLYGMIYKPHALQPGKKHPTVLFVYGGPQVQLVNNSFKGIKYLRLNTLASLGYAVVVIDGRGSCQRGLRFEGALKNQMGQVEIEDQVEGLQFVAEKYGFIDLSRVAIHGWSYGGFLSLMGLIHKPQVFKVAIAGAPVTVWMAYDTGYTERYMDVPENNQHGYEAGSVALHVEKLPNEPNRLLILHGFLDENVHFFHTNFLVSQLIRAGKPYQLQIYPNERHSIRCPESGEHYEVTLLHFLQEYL

Legend:
[1] = molecular target: FLAG-tagged DPP9 (DPP9S), wild type (human), Q86TI2; test: co-IP; conditions: remark: other sources report otherwise
[2] = molecular target: FLAG-tagged DPP9 (DPP9S), wild type (human) (UniProt Q86TI2); test: co-IP

binding [1] | binding [2] | Binder
binds | – | MYC-tagged full-length NLRP1 S1213A, Q9C000 1-1473 (protein) MAGGAWGRLACYLEFLKKEELKEFQLLLANKAHSRSSSGETPAQPEKTSGMEVASYLVAQYGEQRAWDLALHTWEQMGLRSLCAQAQEGAGHSPSFPYSPSEPHLGSPSQPTSTAVLMPWIHELPAGCTQGSERRVLRQLPDTSGRRWREISASLLYQALPSSPDHESPSQESPNAPTSTAVLGSWGSPPQPSLAPREQEAPGTQWPLDETSGIYYTEIREREREKSEKGRPPWAAVVGTPPQAHTSLQPHHHPWEPSVRESLCSTWPWKNEDFNQKFTQLLLLQRPHPRSQDPLVKRSWPDYVEENRGHLIEIRDLFGPGLDTQEPRIVILQGAAGIGKSTLARQVKEAWGRGQLYGDRFQHVFYFSCRELAQSKVVSLAELIGKDGTATPAPIRQILSRPERLLFILDGVDEPGWVLQEPSSELCLHWSQPQPADALLGSLLGKTILPEASFLITARTTALQNLIPSLEQARWVEVLGFSESSRKEYFYRYFTDERQAIRAFRLVKSNKELWALCLVPWVSWLACTCLMQQMKRKEKLTLTSKTTTTLCLHYLAQALQAQPLGPQLRDLCSLAAEGIWQKKTLFSPDDLRKHGLDGAIISTFLKMGILQEHPIPLSYSFIHLCFQEFFAAMSYVLEDEKGRGKHSNCIIDLEKTLEAYGIHGLFGASTTRFLLGLLSDEGEREMENIFHCRLSQGRNLMQWVPSLQLLLQPHSLESLHCLYETRNKTFLTQVMAHFEEMGMCVETDMELLVCTFCIKFSRHVKKLQLIEGRQHRSTWSPTMVVLFRWVPVTDAYWQILFSVLKVTRNLKELDLSGNSLSHSAVKSLCKTLRRPRCLLETLRLAGCGLTAEDCKDLAFGLRANQTLTELDLSFNVLTDAGAKHLCQRLRQPSCKLQRLQLVSCGLTSDCCQDLASVLSASPSLKELDLQQNNLDDVGVRLLCEGLRHPACKLIRLGLDQTTLSDEMRQELRALEQEKPQLLIFSRRKPSVMTPTEGLDTGEMSNSTSSLKRQRLGSERAASHVAQANLKLLDVSKIFPIAEIAEESSPEVVPVELLCVPSPASQGDLHTKPLGTDDDFWGPTGPVATEVVDKEKNLYRVHFPVAGSYRWPNTGLCFVMREAVTVEIEFCVWDQFLGEINPQHSWMVAGPLLDIKAEPGAVEAVHLPHFVALQGGHVDTSLFQMAHFKEEGMLLEKPARVELHHIVLENPSFAPLGVLLKMIHNALRFIPVTSVVLLYHRVHPEEVTFHLYLIPSDCSIRKAIDDLEMKFQFVRIHKPPPLTPLYMGCRYTVSGSGSGMLEILPKELELCYRSPGEDQLFSEFYVGHLGSGIRLQVKDKKDETLVWEALVKPGDLMPATTLIPPARIAVPSPLDAPQLLHFVDQYREQLIARVTSVEVVLDKLHGQVLSQEQYERVLAENTRPSQMRKLFSLSQSWDRKCKDGLYQALKETHPHLIMELWEKGSKKGLLPLSS
– | binds | V5-tagged UbN-S1213 NLRP1 (NLRP1-CT-V5) (domain or fragment, UniProt Q9C000 1213-1473) SPLGVLLKMIHNALRFIPVTSVVLLYHRVHPEEVTFHLYLIPSDCSIRKAIDDLEMKFQFVRIHKPPPLTPLYMGCRYTVSGSGSGMLEILPKELELCYRSPGEDQLFSEFYVGHLGSGIRLQVKDKKDETLVWEALVKPGDLMPATTLIPPARIAVPSPLDAPQLLHFVDQYREQLIARVTSVEVVLDKLHGQVLSQEQYERVLAENTRPSQMRKLFSLSQSWDRKCKDGLYQALKETHPHLIMELWEKGSKKGLLPLSS
